The record followed here is paper doi:10.1101/2025.10.30.684516.

The chains behind the UniProt entries cited, without tags or fusion partners. Residues count along the entry.
UniProt O75131: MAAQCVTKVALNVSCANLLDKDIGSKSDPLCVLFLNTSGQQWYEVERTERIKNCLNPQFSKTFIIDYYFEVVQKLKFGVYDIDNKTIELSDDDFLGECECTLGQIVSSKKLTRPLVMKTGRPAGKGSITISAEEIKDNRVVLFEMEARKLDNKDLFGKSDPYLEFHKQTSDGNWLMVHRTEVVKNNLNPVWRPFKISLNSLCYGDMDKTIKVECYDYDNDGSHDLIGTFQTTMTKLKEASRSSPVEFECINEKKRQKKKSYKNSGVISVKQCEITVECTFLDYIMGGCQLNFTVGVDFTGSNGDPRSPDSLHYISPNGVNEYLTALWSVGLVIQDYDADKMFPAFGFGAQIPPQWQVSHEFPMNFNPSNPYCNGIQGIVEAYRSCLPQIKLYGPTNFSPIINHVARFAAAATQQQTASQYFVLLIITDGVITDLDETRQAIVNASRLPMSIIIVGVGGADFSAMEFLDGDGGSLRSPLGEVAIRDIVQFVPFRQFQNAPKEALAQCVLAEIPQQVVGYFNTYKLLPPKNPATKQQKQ
UniProt P51531: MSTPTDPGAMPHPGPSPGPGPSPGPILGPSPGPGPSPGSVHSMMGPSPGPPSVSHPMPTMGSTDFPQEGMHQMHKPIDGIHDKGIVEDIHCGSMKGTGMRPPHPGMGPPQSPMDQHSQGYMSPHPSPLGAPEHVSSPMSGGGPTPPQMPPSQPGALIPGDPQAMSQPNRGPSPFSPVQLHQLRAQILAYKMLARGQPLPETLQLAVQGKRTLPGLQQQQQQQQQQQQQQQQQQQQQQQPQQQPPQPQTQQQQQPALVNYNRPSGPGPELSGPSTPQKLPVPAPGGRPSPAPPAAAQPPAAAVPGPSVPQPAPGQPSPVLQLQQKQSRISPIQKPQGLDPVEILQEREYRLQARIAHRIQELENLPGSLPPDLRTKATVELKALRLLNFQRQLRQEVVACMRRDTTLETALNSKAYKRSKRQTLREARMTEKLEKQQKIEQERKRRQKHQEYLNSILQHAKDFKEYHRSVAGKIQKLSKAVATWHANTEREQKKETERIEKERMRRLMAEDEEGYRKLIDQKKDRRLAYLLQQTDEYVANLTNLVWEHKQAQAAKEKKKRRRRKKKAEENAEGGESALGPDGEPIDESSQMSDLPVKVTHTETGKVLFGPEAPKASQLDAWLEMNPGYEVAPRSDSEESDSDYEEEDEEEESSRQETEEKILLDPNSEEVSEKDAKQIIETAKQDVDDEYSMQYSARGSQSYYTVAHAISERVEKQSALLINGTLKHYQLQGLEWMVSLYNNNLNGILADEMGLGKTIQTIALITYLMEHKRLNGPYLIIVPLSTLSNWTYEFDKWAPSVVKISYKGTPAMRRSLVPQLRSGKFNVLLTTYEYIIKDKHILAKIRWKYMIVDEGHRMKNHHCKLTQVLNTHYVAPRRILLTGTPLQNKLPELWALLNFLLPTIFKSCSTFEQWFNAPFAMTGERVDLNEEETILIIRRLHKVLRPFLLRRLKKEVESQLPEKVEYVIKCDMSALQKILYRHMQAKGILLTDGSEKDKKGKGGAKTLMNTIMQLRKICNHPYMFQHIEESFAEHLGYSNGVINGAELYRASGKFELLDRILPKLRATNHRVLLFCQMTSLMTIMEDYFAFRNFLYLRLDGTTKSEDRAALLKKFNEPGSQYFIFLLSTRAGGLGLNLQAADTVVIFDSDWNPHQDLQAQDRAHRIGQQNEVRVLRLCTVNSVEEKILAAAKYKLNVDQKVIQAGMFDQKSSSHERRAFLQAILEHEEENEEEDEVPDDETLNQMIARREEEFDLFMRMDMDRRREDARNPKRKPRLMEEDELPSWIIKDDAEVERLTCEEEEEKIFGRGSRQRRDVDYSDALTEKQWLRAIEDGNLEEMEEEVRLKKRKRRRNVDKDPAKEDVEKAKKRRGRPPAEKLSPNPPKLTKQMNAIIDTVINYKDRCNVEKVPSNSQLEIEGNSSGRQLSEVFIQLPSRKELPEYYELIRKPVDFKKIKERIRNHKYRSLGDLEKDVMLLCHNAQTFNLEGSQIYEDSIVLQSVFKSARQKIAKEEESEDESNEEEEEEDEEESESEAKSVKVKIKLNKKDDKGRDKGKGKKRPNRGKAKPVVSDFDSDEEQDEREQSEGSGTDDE
UniProt Q9BQE3: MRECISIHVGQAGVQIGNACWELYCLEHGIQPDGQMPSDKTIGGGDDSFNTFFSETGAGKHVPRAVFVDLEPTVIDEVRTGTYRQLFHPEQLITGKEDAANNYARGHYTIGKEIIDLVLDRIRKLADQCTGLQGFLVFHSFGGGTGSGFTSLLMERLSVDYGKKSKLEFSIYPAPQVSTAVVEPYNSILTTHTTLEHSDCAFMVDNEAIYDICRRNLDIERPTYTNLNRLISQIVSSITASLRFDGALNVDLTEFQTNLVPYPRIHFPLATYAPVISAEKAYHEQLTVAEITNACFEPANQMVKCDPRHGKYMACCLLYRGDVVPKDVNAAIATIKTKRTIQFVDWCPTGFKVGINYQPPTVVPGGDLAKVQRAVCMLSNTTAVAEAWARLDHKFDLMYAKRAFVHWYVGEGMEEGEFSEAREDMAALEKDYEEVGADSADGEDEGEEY
UniProt P04792: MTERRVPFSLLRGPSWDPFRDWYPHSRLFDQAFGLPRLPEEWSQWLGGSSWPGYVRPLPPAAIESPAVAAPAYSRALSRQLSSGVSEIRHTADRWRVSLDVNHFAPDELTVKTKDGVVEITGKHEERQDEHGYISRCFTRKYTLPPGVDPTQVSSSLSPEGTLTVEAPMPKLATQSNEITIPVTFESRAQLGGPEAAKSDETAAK
UniProt O95817: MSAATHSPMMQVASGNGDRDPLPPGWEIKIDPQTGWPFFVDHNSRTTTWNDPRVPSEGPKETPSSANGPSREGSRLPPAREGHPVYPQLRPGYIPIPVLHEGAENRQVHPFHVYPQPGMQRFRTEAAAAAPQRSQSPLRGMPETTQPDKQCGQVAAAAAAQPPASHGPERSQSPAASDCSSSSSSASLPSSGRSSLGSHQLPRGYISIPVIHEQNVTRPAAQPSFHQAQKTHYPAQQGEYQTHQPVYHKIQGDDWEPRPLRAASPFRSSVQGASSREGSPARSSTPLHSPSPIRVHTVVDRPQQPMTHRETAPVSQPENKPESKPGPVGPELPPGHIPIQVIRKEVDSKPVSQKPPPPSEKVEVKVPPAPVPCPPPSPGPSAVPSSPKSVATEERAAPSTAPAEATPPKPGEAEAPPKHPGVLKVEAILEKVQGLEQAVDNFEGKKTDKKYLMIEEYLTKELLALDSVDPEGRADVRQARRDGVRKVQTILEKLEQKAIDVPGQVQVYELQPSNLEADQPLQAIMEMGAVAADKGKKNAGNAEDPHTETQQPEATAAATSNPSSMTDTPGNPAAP
UniProt Q96SB4: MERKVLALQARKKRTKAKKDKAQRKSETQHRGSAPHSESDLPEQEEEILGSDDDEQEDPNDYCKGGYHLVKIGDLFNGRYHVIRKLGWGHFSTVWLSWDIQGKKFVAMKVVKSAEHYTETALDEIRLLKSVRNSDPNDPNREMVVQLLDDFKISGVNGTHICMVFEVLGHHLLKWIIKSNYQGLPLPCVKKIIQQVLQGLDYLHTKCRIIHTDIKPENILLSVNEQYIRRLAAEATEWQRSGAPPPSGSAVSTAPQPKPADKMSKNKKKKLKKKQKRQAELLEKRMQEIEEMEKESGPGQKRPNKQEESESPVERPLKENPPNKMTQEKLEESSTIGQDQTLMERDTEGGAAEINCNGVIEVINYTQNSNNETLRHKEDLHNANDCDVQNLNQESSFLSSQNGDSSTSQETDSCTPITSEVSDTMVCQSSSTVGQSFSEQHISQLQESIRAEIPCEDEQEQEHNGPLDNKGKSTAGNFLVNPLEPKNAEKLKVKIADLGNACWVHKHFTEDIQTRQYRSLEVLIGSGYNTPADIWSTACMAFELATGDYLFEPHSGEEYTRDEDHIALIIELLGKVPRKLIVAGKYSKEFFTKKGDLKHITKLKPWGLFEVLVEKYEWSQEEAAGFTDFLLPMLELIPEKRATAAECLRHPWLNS
UniProt O75348: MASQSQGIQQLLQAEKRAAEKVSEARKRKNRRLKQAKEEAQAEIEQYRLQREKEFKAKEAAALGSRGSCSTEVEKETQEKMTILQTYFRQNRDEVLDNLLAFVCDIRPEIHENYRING
UniProt O75027, residues 23-752: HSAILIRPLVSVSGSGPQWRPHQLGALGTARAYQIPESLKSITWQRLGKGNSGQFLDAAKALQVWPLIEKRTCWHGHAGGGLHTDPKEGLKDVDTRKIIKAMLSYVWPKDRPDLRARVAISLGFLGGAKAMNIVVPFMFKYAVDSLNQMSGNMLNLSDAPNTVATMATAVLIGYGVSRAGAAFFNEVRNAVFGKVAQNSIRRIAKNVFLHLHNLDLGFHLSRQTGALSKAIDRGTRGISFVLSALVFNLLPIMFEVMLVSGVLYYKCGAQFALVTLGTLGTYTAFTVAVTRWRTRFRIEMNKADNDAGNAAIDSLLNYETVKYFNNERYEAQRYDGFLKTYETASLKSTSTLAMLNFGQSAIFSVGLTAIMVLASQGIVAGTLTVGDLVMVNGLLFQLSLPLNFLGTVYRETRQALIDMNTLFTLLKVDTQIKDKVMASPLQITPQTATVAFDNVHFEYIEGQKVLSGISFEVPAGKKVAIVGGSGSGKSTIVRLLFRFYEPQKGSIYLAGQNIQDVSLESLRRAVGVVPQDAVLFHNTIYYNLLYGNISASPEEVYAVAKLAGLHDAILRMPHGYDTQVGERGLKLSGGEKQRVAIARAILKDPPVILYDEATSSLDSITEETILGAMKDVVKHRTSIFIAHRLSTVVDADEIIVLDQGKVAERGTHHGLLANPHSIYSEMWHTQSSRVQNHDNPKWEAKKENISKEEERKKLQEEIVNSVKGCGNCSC
UniProt P11413: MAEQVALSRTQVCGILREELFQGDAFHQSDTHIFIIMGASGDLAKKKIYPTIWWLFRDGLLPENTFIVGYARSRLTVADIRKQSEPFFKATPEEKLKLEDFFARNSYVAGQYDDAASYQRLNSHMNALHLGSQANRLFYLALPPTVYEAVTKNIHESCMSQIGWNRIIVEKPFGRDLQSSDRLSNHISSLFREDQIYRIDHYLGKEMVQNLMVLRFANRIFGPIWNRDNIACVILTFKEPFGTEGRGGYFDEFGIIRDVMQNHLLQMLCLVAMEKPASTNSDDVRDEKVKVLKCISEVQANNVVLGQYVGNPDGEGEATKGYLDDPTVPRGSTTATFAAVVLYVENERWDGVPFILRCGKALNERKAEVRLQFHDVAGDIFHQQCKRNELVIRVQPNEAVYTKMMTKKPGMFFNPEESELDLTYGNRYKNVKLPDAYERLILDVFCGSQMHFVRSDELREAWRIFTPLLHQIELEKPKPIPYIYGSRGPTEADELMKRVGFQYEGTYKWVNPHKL
UniProt Q9UBN7: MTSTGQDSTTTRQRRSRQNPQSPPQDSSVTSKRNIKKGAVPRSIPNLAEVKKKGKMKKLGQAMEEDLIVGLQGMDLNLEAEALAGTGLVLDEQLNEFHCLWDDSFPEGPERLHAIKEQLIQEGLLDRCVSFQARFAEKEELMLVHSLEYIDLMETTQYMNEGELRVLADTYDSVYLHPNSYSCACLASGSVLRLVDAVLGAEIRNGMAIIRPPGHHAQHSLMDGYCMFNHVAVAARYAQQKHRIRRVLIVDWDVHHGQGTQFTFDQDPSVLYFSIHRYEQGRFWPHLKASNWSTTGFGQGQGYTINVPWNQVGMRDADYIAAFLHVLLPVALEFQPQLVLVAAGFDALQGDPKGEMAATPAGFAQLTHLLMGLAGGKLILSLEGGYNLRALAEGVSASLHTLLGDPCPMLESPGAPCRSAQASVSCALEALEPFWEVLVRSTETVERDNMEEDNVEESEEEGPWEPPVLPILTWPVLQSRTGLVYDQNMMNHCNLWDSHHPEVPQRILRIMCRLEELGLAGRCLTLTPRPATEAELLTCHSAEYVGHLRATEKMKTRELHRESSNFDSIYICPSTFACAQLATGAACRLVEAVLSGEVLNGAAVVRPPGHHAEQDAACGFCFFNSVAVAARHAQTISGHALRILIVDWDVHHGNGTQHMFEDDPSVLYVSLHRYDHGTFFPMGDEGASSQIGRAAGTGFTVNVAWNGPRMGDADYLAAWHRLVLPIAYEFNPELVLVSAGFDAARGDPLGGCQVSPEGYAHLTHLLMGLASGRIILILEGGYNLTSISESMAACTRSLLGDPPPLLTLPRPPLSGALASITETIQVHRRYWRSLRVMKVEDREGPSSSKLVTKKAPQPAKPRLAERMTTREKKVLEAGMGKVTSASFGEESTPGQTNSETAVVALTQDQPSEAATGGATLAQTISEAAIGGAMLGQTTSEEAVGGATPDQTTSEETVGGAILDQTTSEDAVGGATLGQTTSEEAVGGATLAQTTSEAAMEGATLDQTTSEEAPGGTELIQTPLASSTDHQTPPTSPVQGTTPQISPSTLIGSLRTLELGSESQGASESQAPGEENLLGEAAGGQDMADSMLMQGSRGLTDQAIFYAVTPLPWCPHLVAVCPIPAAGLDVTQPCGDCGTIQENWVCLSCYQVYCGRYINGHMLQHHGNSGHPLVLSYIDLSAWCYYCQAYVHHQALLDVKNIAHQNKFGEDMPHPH

These are yes or no findings as the source states them, for the method shown. Binding seen in cells or lysates may run through a third protein. These calls come from enrichment with a bait or labelling near it, and not all partners need be listed.

To fix the notation:
B1: GTF3C4 (protein, UniProt Q9UKN8 1-822)
chain: MNTADQARVGPADDGPAPSGEEEGEGGGEAGGKEPAADAAPGPSAAFRLMVTRREPAVKLQYAVSGLEPLAWSEDHRVSVSTARSIAVLELICDVHNPGQDLVIHRTSVPAPLNSCLLKVGSKTEVAECKEKFAASKDPTVSQTFMLDRVFNPEGKALPPMRGFKYTSWSPMGCDANGRCLLAALTMDNRLTIQANLNRLQWVQLVDLTEIYGERLYETSYRLSKNEAPEGNLGDFAEFQRRHSMQTPVRMEWSGICTTQQVKHNNECRDVGSVLLAVLFENGNIAVWQFQLPFVGKESISSCNTIESGITSPSVLFWWEYEHNNRKMSGLIVGSAFGPIKILPVNLKAVKGYFTLRQPVILWKEMDQLPVHSIKCVPLYHPYQKCSCSLVVAARGSYVFWCLLLISKAGLNVHNSHVTGLHSLPIVSMTADKQNGTVYTCSSDGKVRQLIPIFTDVALKFEHQLIKLSDVFGSVRTHGIAVSPCGAYLAIITTEGMINGLHPVNKNYQVQFVTLKTFEEAAAQLLESSVQNLFKQVDLIDLVRWKILKDKHIPQFLQEALEKKIESSGVTYFWRFKLFLLRILYQSMQKTPSEALWKPTHEDSKILLVDSPGMGNADDEQQEEGTSSKQVVKQGLQERSKEGDVEEPTDDSLPTTGDAGGREPMEEKLLEIQGKIEAVEMHLTREHMKRVLGEVYLHTWITENTSIPTRGLCNFLMSDEEYDDRTARVLIGHISKKMNKQTFPEHCSLCKEILPFTDRKQAVCSNGHIWLRCFLTYQSCQSLIYRRCLLHDSIARHPAPEDPDWIKRLLQSPCPFCDSPVF
B2: RBM42 (protein, UniProt Q9BTD8 1-480)
chain: MAGAGPAPGLPGAGGPVVPGPGAGIPGKSGEERLKEMEAEMALFEQEVLGAPVPGIPTAVPAVPTVPTVPTVEAMQVPAAPVIRPIIATNTYQQVQQTLEARAAAAATVVPPMVGGPPFVGPVGFGPGDRSHLDSPEAREAMFLRRAAVAPQRAPILRPAFVPHVLQRADSALSSAAAGPRPMALRPPHQALVGPPLPGPPGPPMMLPPMARAPGPPLGSMAALRPPLEEPAAPRELGLGLGLGLKEKEEAVVAAAAGLEEASAAVAVGAGGAPAGPAVIGPSLPLALAMPLPEPEPLPLPLEVVRGLLPPLRIPELLSLRPRPRPPRPEPPPGLMALEVPEPLGEDKKKGKPEKLKRCIRTAAGSSWEDPSLLEWDADDFRIFCGDLGNEVNDDILARAFSRFPSFLKAKVIRDKRTGKTKGYGFVSFKDPSDYVRAMREMNGKYVGSRPIKLRKSMWKDRNLDVVRKKQKEKKKLGLR
B3: TIAL1 (protein, UniProt Q01085 1-375)
chain: MMEDDGQPRTLYVGNLSRDVTEVLILQLFSQIGPCKSCKMITEHTSNDPYCFVEFYEHRDAAAALAAMNGRKILGKEVKVNWATTPSSQKKDTSNHFHVFVGDLSPEITTEDIKSAFAPFGKISDARVVKDMATGKSKGYGFVSFYNKLDAENAIVHMGGQWLGGRQIRTNWATRKPPAPKSTQENNTKQLRFEDVVNQSSPKNCTVYCGGIASGLTDQLMRQTFSPFGQIMEIRVFPEKGYSFVRFSTHESAAHAIVSVNGTTIEGHVVKCYWGKESPDMTKNFQQVDYSQWGQWSQVYGNPQQYGQYMANGWQVPPYGVYGQPWNQQGFGVDQSPSAAWMGGFGAQPPQGQAPPPVIPPPNQAGYGMASYQTQ
B4: SRSF7 (protein, UniProt Q16629 1-238)
chain: MSRYGRYGGETKVYVGNLGTGAGKGELERAFSYYGPLRTVWIARNPPGFAFVEFEDPRDAEDAVRGLDGKVICGSRVRVELSTGMPRRSRFDRPPARRPFDPNDRCYECGEKGHYAYDCHRYSRRRRSRSRSRSHSRSRGRRYSRSRSRSRGRRSRSASPRRSRSISLRRSRSASLRRSRSGSIKGSRYFQSPSRSRSRSRSISRPRSSRSKSRSPSPKRSRSPSGSPRRSASPERMD
B5: SRSF11 (protein, UniProt Q05519 1-484)
chain: MSNTTVVPSTAGPGPSGGPGGGGGGGGGGGGTEVIQVTNVSPSASSEQMRTLFGFLGKIDELRLFPPDDSPLPVSSRVCFVKFHDPDSAVVAQHLTNTVFVDRALIVVPYAEGVIPDEAKALSLLAPANAVAGLLPGGGLLPTPNPLTQIGAVPLAALGAPTLDPALAALGLPGANLNSQSLAADQLLKLMSTVDPKLNHVAAGLVSPSLKSDTSSKEIEEAMKRVREAQSLISAAIEPDKKEEKRRHSRSRSRSRRRRTPSSSRHRRSRSRSRRRSHSKSRSRRRSKSPRRRRSHSRERGRRSRSTSKTRDKKKEDKEKKRSKTPPKSYSTARRSRSASRERRRRRSRSGTRSPKKPRSPKRKLSRSPSPRRHKKEKKKDKDKERSRDERERSTSKKKKSKDKEKDRERKSESDKDVKQVTRDYDEEEQGYDSEKEKKEEKKPIETGSPKTKECSVEKGTGDSLRESKVNGDDHHEEDMDMSD
B6: ACAA2 (protein, UniProt P42765 1-397)
chain: MALLRGVFVVAAKRTPFGAYGGLLKDFTATDLSEFAAKAALSAGKVSPETVDSVIMGNVLQSSSDAIYLARHVGLRVGIPKETPALTINRLCGSGFQSIVNGCQEICVKEAEVVLCGGTESMSQAPYCVRNVRFGTKLGSDIKLEDSLWVSLTDQHVQLPMAMTAENLAVKHKISREECDKYALQSQQRWKAANDAGYFNDEMAPIEVKTKKGKQTMQVDEHARPQTTLEQLQKLPPVFKKDGTVTAGNASGVADGAGAVIIASEDAVKKHNFTPLARIVGYFVSGCDPSIMGIGPVPAISGALKKAGLSLKDMDLVEVNEAFAPQYLAVERSLDLDISKTNVNGGAIALGHPLGGSGSRITAHLVHELRRRGGKYAVGSACIGGGQGIAVIIQSTA
B7: TRMT10C (protein, UniProt Q7L0Y3 40-403)
chain: MSSKIPAVTYPKNESTPPSEELELDKWKTTMKSSVQEECVSTISSSKDEDPLAATREFIEMWRLLGREVPEHITEEELKTLMECVSNTAKKKYLKYLYTKEKVKKARQIKKEMKAAAREEAKNIKLLETTEEDKQKNFLFLRLWDRNMDIAMGWKGAQAMQFGQPLVFDMAYENYMKRKELQNTVSQLLESEGWNRRNVDPFHIYFCNLKIDGALHRELVKRYQEKWDKLLLTSTEKSHVDLFPKDSIIYLTADSPNVMTTFRHDKVYVIGSFVDKSMQPGTSLAKAKRLNLATECLPLDKYLQWEIGNKNLTLDQMIRILLCLKNNGNWQEALQFVPKRKHTGFLEISQHSQEFINRLKKAKT

For the first assay, the target named is VIM-APEX2-GFP (UniProt P08670). Nature of the assay: proximity labelling.
Take HNRNPAB (from UniProt Q99729 1-332): the binding result is “binds”. On the same count and under the same terms, the value for CPNE3 (from UniProt O75131 1-537) was “binds”.

In the case of ABCD1 (from UniProt P33897 1-745), the binding entry is recorded as “binds”.

For the molecule SFN (from UniProt P31947 1-248), the binding result is “binds”.

Take DHFR (from UniProt P00374 1-187): the binding entry is “binds”. As for DNAJC19 (from UniProt Q96DA6 1-116), the binding result is listed as “binds”. Still for that read-out and setting: the value for RAB35 (from UniProt Q15286 1-201) was “binds”; that for SMARCA2 (from UniProt P51531 1-1590) was “binds”. Turning to TUBA1C (from UniProt Q9BQE3 1-449), the binding result is “binds”. PDLIM1 (from UniProt O00151 1-329): the binding entry was “binds”.

For the molecule SNX12 (from UniProt Q9UMY4 1-162), the binding entry is recorded as “binds”.

In the case of EIF4A2 (from UniProt Q14240 1-407), the binding result is recorded as “binds”. Same read-out and setting: the entry for RNPEP (from UniProt Q9H4A4 1-650) is “binds”; for MTMR2 (from UniProt Q13614 1-643) it is “binds”. On the same count and under the same terms, the entry for “ISG15 (Interferon-Stimulated Gene 15) (from UniProt P05161 1-157)” is “binds”; for MAPRE2 (from UniProt Q15555 1-327) it is “binds”. On the same count and under the same terms, the entry for ANXA11 (from UniProt P50995 1-505) is “binds”; for GNA11 (from UniProt P29992 1-359) it is “binds”; for “RPS6KA3 (Ribosomal Protein S6 Kinase A3) (from UniProt P51812 1-740)” it is “binds”.

As to Hsp27 (from UniProt P04792 1-205), the binding entry is “binds”. Still for that read-out and setting: the entry for FUS (from UniProt P35637 1-526) is “binds”.

For the molecule BAG3 (from UniProt O95817 1-575), the binding entry is recorded as “binds”. Still for that read-out and setting: the value for TSN (from UniProt Q15631 1-228) was “binds”. Same read-out and setting: the entry for SRPK1 (from UniProt Q96SB4 1-655) is “binds”. “MAP4 (Microtubule associated protein 4) (from UniProt P27816 1-1152)”: the binding result was “binds”. On the same count and under the same terms, the entry for ARF6 (from UniProt P62330 1-175) is “binds”; for HSPA1A (from UniProt P0DMV8 1-641) it is “binds”; for ATP6V1G1 (from UniProt O75348 1-118) it is “binds”.

For ABCB7 (from UniProt O75027 23-752), the binding entry is recorded as “binds”. Still for that read-out and setting: the value for SMAD2 (from UniProt Q15796 1-467) was “binds”. The same measure, in the same setting: the entry for “G6PD (Glucose-6-phosphate dehydrogenase) (from UniProt P11413 1-515)” is “binds”; for RAB8A (from UniProt P61006 1-207) it is “binds”.

In a further assay the target is VIM-APEX2-GFP (UniProt P08670). Nature of the assay: proximity labelling. The source holds these as a separate data set.
In the case of B1, the binding entry was “binds”.

Another assay has as its target HDAC6-APEX2-GFP (UniProt Q9UBN7). Nature of the assay: proximity labelling.
With B2, the binding entry is “binds”. On the same count and under the same terms, the value for B3 was “binds”. Still for that read-out and setting: the value for B4 was “binds”.

In the case of B5, the binding entry is on record as “binds”. B6: the binding entry was “binds”. Turning to B7, the binding result is reported as “binds”.
